HELM strings list residues between dots; [ac] is acetyl, [am] amide, other brackets name non-standard units.
Experiment: general procedure: Fmoc solid-phase peptide synthesis; 2-chlorotrityl-chloride resin (0.9 mmol/g)
Settings: whole synthesis, UPLC-UV-MS (Waters AQUITY-H-Class-SQD2, BEH C18)

## PEPTIDE1{R.P.[Hyp].G.[Thi].S.[NChg].[Thi].R}$$$$V2.0
  final HPLC purity: 100%

## PEPTIDE1{[Mpa].[bAla].K.R.P.P.G.F.S.P.[dF]}$$$$V2.0
  final HPLC purity: 100%

## PEPTIDE1{[Mpa].[bAla].R.P.[Hyp].G.[Thi].S.[NChg].[Thi].R}$$$$V2.0
  final HPLC purity: 100%

## PEPTIDE1{[Sar].K.R.P.P.G.F.S.P.[dF]}$$$$V2.0
  final HPLC purity: 99.1%

## PEPTIDE1{[Mpa].[bAla].[Orn].R.[Oic].P.G.[aMePhe].S.[D-bNal].I}$$$$V2.0
  final HPLC purity: 99.8%

## PEPTIDE1{[ac].[Orn].R.[Oic].P.G.[aMePhe].S.[D-bNal].I}$$$$V2.0
  final HPLC purity: 99.2%
